Data on 6 substances can be found in patent US20260137819A1 (Radionetics Oncology, Inc., priority 2022, published 2026).

Series [1] in a line: general procedure: Fmoc solid-phase peptide synthesis; CTC resin; PyBOP/DIPEA. The settings on record: whole synthesis.
A short description of series [2]: general procedure: Fmoc solid-phase peptide synthesis; Rink amide resin (100-200 mesh, 0.62 mmol/g); 2-chlorotrityl chloride resin (1.1 mmol/g); Wang resin; PyBOP/DIPEA. The settings on record: for step yield: late stage modification step.
A short description of series [3]: general procedure: Fmoc solid-phase peptide synthesis; Rink amide resin; PyBOP/DIPEA. To be noted: whole synthesis.
Setting [4] is: scale of the general procedure 100 mg resin/tube, total 5 tubes.

The substance “1-(9H-fluoren-9-yl)-8,11,14,17,20-pentamethyl-3,7,10,13,16,19-hexaoxo-2-oxa-4,8,11,14,17.20-hexaazadocosan-22-oic acid” gave an isolated mass in series [1] of 5.1183 g. Moreover, the isolated yield entry in series [1] (overall, scale of the general procedure 100 mg resin/tube, total 5 tubes) is on record as “overall yield 15.74%”. In series [1] (setting [4]), the “final purity (method not given)” value came out at 98.5% purity.

Regarding “3-amino-N-(14-((3-(1-(3,5-dichlorophenyl)-3-(3,3-dimethylmorpholine-4-carbonyl)-7-methoxy-1,4-dihydrochromeno[4,3-c]pyrazol-8-yl)phenyl)amino)-3,6,9,12-tetramethyl-2,5,8,11, 14-pentaoxo-3,6,9,12-tetraazatetradecyl)-N-methylpropanamide”, in series [2], the step yield came to 61%. The substance “3-amino-N-(14-((5-(1-(3,5-difluorophenyl)-3-(3,3-dimethylmorpholine-4-carbonyl)-7-methoxy-1,4-dihydrochromeno[4,3-c]pyrazol-8-yl) pyridin-3-yl)amino)-3,6,9,12-tetramethyl-2,5,8,11,14-pentaoxo-3,6,9,12-tetraazatetradecyl)-N-methylpropanamide” returned a step yield in series [2] of 92%. “(4R,7R,10R,13R,16R)-4-(((R)-1-amino-1-oxopropan-2-yl) carbamoyl)-10-(4-(4((3-(1-(3,5-dichlorophenyl)-3-(3,3-dimethylmorpholine-4-carbonyl)-7-methoxy-1,4-dihydrochromeno|4,3-clpyrazol-8-yl)phenyl)amino)-4-oxobutanamido)butyl)-7,13-dimethyl-6,9,12,15-tetraoxo-16-((R)-2-(2-(4,7,10-tris(carboxymethyl)-1,4,7,10-tetraazacyclododecan-1-yl)acetamido) propanamido)-5,8,11,14-tetraazanonadecanedioic acid”: the isolated mass in series [3] stood at 193.8 mg. Moreover, in series [3] (setting [4]), the “final purity (method not given)” value is recorded as 97.1% purity and the isolated yield came out at 29.1%.

“(9H-fluoren-9-yl)methyl (1-((5-(1-(3,5-difluorophenyl)-3-(3,3-dimethylmorpholine-4-carbonyl)-7-methoxy-1,4-dihydrochromeno[4,3-c]pyrazol-8-yl) pyridin-3-yl)amino)-3,6,9, 12, 15-pentamethyl-1,4,7, 10, 13, 16-hexaoxo-3,6,9, 12, 15-pentaazaoctadecan-18-yl) carbamate” yielded a conjugation yield in series [2] (conjugation step) of 66.4%. With “indium (III) 2,2′,2″-(10-(1-((3-(1-(3,5-dichlorophenyl)-3-(3,3-dimethylmorpholine-4-carbonyl)-7-methoxy-1,4-dihydrochromeno[4,3-c]pyrazol-8-yl)phenyl)amino)-3,6,9,12,15-pentamethyl-1,4,7,10, 13, 16,20-heptaoxo-3,6,9, 12, 15, 19-hexaazahenicosan-21-yl)-1,4, 7,10-tetraazacyclododecane-1,4,7-triyl)triacetate 1FA salt”, the step yield in series [2] (1FA salt) is listed as 62%.
